Experimental data as given in PubChem BioAssay AID1508600 (Functional Genomics Laboratory (NCATS/FGL), 2020).
The whole screen tested about 53,000 sequences, of which about 3,700 (7%) were called active.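 Rule for the calls: active = gene knockdowns whose robust z-score for IL-1 alpha signal is at least 2 or at most -2, so actives lie on both sides; inactive = the rest.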 Some of the results follow.

Experiment: Components of the Cytosolic LPS Sensing Pathway: Gene Identification via Genome-wide siRNA Screen;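 note: robust z of the log signal after scaling to non-targeting control siRNA wells of the plate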
Conditions: RAW264.7 macrophages, IL-1a HTRF, actives lie on both sides, screened at 100 nM (by protocol), cells primed 5 h with Pam3CSK4 first
Outline: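 Three distinct siRNAs per gene were tested singly at 100 nM in RAW264.7 macrophages. Following Pam3CSK4 priming and 24 hour LipidA transfection, IL-1a secretion was read by HTRF.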

Q: Which z-score does the source give for GGAACUAACCAACGACUAATT against Tdrp here?
A: inactive: 0.0936

Q: Which z-score does the source give for GGUUUAUGCUGUGAAUACATT against Nupl1 here?
A: inactive: -0.967

Q: Which z-score does the source give for CCCAGGCACUUGUUUACAGTT against Stim2 here?
A: inactive: -0.454

Q: With GCACAUUUACAGCCUAAUGTT against Cacul1 as the sequence, how does the z-score read?
A: inactive: -0.0731

Q: For GGCACGAUGAGCUCUCCUATT against Cstb, which z-score is on record?
A: inactive: -1.64

Q: Which z-score does the source give for GGCCUCAAGCAGACUUUGATT against Myo9b here?
A: inactive: -0.991

Q: With CCAUAUCCCUGGACUAGAGTT against Pglyrp4 as the sequence, how does the z-score read?
A: inactive: -0.515

Q: For GCUAACUGCUACUAAAAUATT against Ndp, which z-score is on record?
A: inactive: 0.0189

Q: Which z-score does the source give for CCCUCUACAAUAAGAUGCATT against Rusc2 here?
A: inactive: 1.37

Q: For GGGUGACUGAACUUAGAAATT against Cd209c, which z-score is on record?
A: inactive: -0.673

Q: With GGUUUACAAGAGUUACAGUTT against Brpf1 as the sequence, how does the z-score read?
A: inactive: 0.493

Q: With GCAGAUCAGAGACAGAGUUTT against Olfr582 as the sequence, how does the z-score read?
A: inactive: -0.137

Q: Which z-score does the source give for GGUGAUGGUUGGGUUUCUCTT against Olfr1449 here?
A: inactive: -0.987

Q: With CGUACCUAAGCAUACCAGCTT against Gpr20 as the sequence, how does the z-score read?
A: active: 4.94

Q: For CCAUAGAACAAGCUACACCTT against Cd160, which z-score is on record?
A: inactive: -0.157

Q: Which z-score does the source give for GGUGAAAGUUUACCUUCGATT against Kif20a here?
A: inactive: -1.71

Q: Which z-score does the source give for AGCAUCCUAAAUUCAAAAATT against Gm5409 here?
A: inactive: 1.12

Q: With GGAACUUUAGUUUGCGUAUTT against Emp2 as the sequence, how does the z-score read?
A: inactive: -0.236

Q: With GGAUAAUUGCUCAAGCCUGTT against Serac1 as the sequence, how does the z-score read?
A: inactive: 0.688

Q: For GGAUUCAGUCAAGAAUUUGTT against Dhx29, which z-score is on record?
A: inactive: -0.0935

Q: With GGGAGAAGUGUAACAAAUUTT against Gm14461 as the sequence, how does the z-score read?
A: inactive: -0.329

Q: Which z-score does the source give for GGAGGGUCUCCUAAUUUUUTT against Kdelr1 here?
A: inactive: 0.557

Q: With GCUUGAUCUUGCAUUUGGUTT against Smyd3 as the sequence, how does the z-score read?
A: inactive: 0.5

Q: Which z-score does the source give for CCAAGGCCGAAAAGCCUGUTT against Rps19bp1 here?
A: inactive: -0.183

Q: For CGAACAUGAGUGGAUUGUCTT against Morn5, which z-score is on record?
A: inactive: -1.36

Q: With GCAUUUAAUCCUGCACUCCTT against Lrp10 as the sequence, how does the z-score read?
A: inactive: -0.104

Q: With GGACACCACCAAUCUUGACTT against Arsg as the sequence, how does the z-score read?
A: inactive: -1.57

Q: With GGUACCAUUAGUGGAGUCCTT against Hoxb9 as the sequence, how does the z-score read?
A: inactive: -0.794

Q: With GGUCAGAUUAACAAAUUCGTT against Proz as the sequence, how does the z-score read?
A: inactive: -0.188

Q: For GGUGACUAACGAGAUCAUUTT against Slc19a1, which z-score is on record?
A: inactive: 0.913

Q: With GGUCUUUGCCCUACAAACATT against Myof as the sequence, how does the z-score read?
A: inactive: 0.523

Q: For CCUUUUUGAUCGUUAUGAUTT against Dnajc11, which z-score is on record?
A: inactive: -0.696

Q: For GGCACAUUAGUAGAACACATT against Sorcs2, which z-score is on record?
A: inactive: -0.243

Q: Which z-score does the source give for CCAUCACCAGUCGAGAUGCTT against H13 here?
A: inactive: -0.521

Q: With GCCCUUCAGUAUUGACCUGTT against Tmem175 as the sequence, how does the z-score read?
A: inactive: 0.785

Q: With GGAUUGAGUCCUAUGAAGGTT against Stard3nl as the sequence, how does the z-score read?
A: inactive: -1.09

Q: With GGUCUCACAGCAGUACUCATT against Clk4 as the sequence, how does the z-score read?
A: inactive: -1.46

Q: With GCUGCCUACCUGUGAAAGUTT against Pgam2 as the sequence, how does the z-score read?
A: active: 2.82

Q: With GCCACCUAAUUUACAAUCUTT against Ccn3 as the sequence, how does the z-score read?
A: inactive: 0.573

Q: For GGUGCUCAACAAGUGGACUTT against Htr1a, which z-score is on record?
A: inactive: -0.319

Q: For GGUAUUUCCACUGUCCAGCTT against Cnih3, which z-score is on record?
A: inactive: -0.0157

Q: With GGACGAAGGUUUCUUUGAGTT against Samd8 as the sequence, how does the z-score read?
A: inactive: -0.488

Q: With GGUCAUGAAAAAGCUAACCTT against Dppa3 as the sequence, how does the z-score read?
A: inactive: -1.72

Q: For GGAGUUCGUACCCUUAUCCTT against Rtel1, which z-score is on record?
A: active: -2.2

Q: For GCAGGUCUAAAACUCUCAUTT against Sfmbt1, which z-score is on record?
A: active: 2.38

Q: For GGAAAUAAUAUUCCUGGGATT against Ino80, which z-score is on record?
A: inactive: -0.911

Q: Which z-score does the source give for GGGAGAAGAUGUCAACCGGTT against Mtpn here?
A: inactive: -0.0228

Q: For CGAGGUCUCAAUUACAUUATT against Pcolce2, which z-score is on record?
A: inactive: 0.188

Q: For GGAAUUCAUACCCUUGUUGTT against B3gnt5, which z-score is on record?
A: inactive: -0.486

Q: With GGGAUUGGGACUGUUUUUGTT against Atp5g2 as the sequence, how does the z-score read?
A: inactive: 1.31

Q: For GCCAAUAAGAACAACGAUGTT against Des, which z-score is on record?
A: inactive: 0.732

Q: For GGUGGACAAGACUAAAACATT against Podxl, which z-score is on record?
A: inactive: -0.253

Q: Which z-score does the source give for GGGACCUUUCCUGACCUAUTT against Ppdpf here?
A: inactive: -0.362

Q: With CAAUAAUGAAUCCACGGUATT against Olfr728 as the sequence, how does the z-score read?
A: inactive: -0.0469

Q: For GGUGUCCAGAUUUACCUGUTT against Olfr429, which z-score is on record?
A: inactive: -0.0842

Q: Which z-score does the source give for GGAAAGUCAGGAUGAAUAUTT against Cst9 here?
A: inactive: 0.0511

Q: With GCCAUUACUGAUCAAUCAGTT against Zfp958 as the sequence, how does the z-score read?
A: inactive: -0.726

Q: Which z-score does the source give for GGGCUAGAGGAAAACGAAATT against Crot here?
A: inactive: 1.64

Q: With GGAAAAAUGGCAACUUCAATT against Dock3 as the sequence, how does the z-score read?
A: inactive: 0.766

Q: Which z-score does the source give for CGAAAAGGCAAAGUAUGAATT against Hmgb4 here?
A: inactive: -1.07

Q: For GGAUUAGAGGCUAAGGCAGTT against Ankrd24, which z-score is on record?
A: inactive: -0.0277

Q: With GGCUUCAAGCAAGUAAAGGTT against Cars as the sequence, how does the z-score read?
A: inactive: -0.479

Q: For CCAUUUGAACAGUCCGUCUTT against Nhlrc3, which z-score is on record?
A: inactive: -1.09

Q: Which z-score does the source give for GGACCAUGGAUAUUUAAAGTT against Mafk here?
A: inactive: -0.297

Q: For GCUUCCCGCUAUGAGUUCATT against Shisa7, which z-score is on record?
A: active: 2.24

Q: For GGCUGUUUAGAUGUAAUGUTT against Nek1, which z-score is on record?
A: inactive: -0.337

Q: For CCUUAUCCAGACAUAGAUUTT against Zfp940, which z-score is on record?
A: inactive: -1.17

Q: Which z-score does the source give for GCACAUCUCAGCCUGAAUCTT against Cln6 here?
A: inactive: 0.323

Q: Which z-score does the source give for GGAGUACAGUGUGAGCAGATT against Dok4 here?
A: inactive: -0.7

Q: Which z-score does the source give for GGUAACAGUUCAACAGUAUTT against Olfr1039 here?
A: inactive: -1.13

Q: Which z-score does the source give for GCAGCUUAAGUUGCCCAAGTT against Aatk here?
A: inactive: -0.27

Q: Which z-score does the source give for GGCUGAGGAUAUGAUGUUATT against Zic3 here?
A: inactive: 0.272

Q: For GGUCUACGUUAUUAUUACCTT against Etv2, which z-score is on record?
A: inactive: -0.537

Q: For GCUACAUGGAAAGAUACGGTT against Prokr2, which z-score is on record?
A: inactive: 0.723

Q: Which z-score does the source give for GCACGAAGAACCACACAAGTT against Sp110 here?
A: active: 2.37

Q: With GGCUCUGUAGCUAGCAAUATT against C77080 as the sequence, how does the z-score read?
A: inactive: 0.168

Q: With GGUGGUUAGAUUGUCAUGCTT against Vmn1r171 as the sequence, how does the z-score read?
A: inactive: 0.18

Q: With GUCAUCUUGUUCCAUCUGATT against Olfr1269 as the sequence, how does the z-score read?
A: inactive: -1.12

Q: Which z-score does the source give for CCUGGAUGUAGACUUCGCATT against Slc6a7 here?
A: inactive: 0.273

Q: With GGUUUAUGGGACAGUUUUUTT against Plk2 as the sequence, how does the z-score read?
A: active: 5.58

Q: Which z-score does the source give for GGGAGCUACUACCUAUGAUTT against Dio2 here?
A: inactive: -0.28

Q: For GGAAACUACCUACUACCCGTT against Tedc2, which z-score is on record?
A: inactive: 0.192

Q: For GGGCUUCUAUUUGUUCCACTT against Lrfn5, which z-score is on record?
A: inactive: 1.16

Q: With GCCCGUUCCUUUUAUGUAUTT against Klf3 as the sequence, how does the z-score read?
A: inactive: -1.24

Q: Which z-score does the source give for GGAACCAAGGAUGUGAAAGTT against Rab13 here?
A: active: -2.17

Q: For CCACUCUAUUUGUUUGAAATT against Adgb, which z-score is on record?
A: inactive: -0.476

Q: With GGAAAUUUCAAGAGCAAGATT against Rras2 as the sequence, how does the z-score read?
A: inactive: -0.0864

Q: Which z-score does the source give for GGUACAGGAUAAGCAAAUATT against Erp44 here?
A: inactive: -0.545

Q: Which z-score does the source give for GGGAACCUCCUUGUGAACATT against Nlk here?
A: inactive: -0.0438

Q: Which z-score does the source give for GCACUAUGACUACAAGAGUTT against Olfr1457 here?
A: inactive: -0.965

Q: Which z-score does the source give for CCGACUAAAGUGUUUAAUUTT against Pfkfb1 here?
A: inactive: 0.366

Q: With CCUGAUGUAACUAUAAACATT against Adam32 as the sequence, how does the z-score read?
A: inactive: -0.107

Q: With GCAGGAUCCUUAAUUUGGCTT against Nlrp4c as the sequence, how does the z-score read?
A: inactive: 1.06

Q: For GCUCUACAGAUGCCACCACTT against Mlycd, which z-score is on record?
A: inactive: -0.0476

Q: With GCAAUAAAUGGGAACUUACTT against Lrpprc as the sequence, how does the z-score read?
A: inactive: 0.139

Q: Which z-score does the source give for GGAAUGAGAUGUUUUGAGUTT against Ostf1 here?
A: inactive: -1.4

Q: With GCUACAUGGCUAGAAUAGATT against Eif2s2 as the sequence, how does the z-score read?
A: inactive: -0.697

Q: For GGUGUGUCUGUGCUUAUUUTT against Olfr780, which z-score is on record?
A: inactive: 0.343

Q: Which z-score does the source give for GGAAAGAAACUACUUCAUCTT against Vash1 here?
A: inactive: -0.214

Q: For GGGUAAUGCAAAGAAAACATT against Dlc1, which z-score is on record?
A: inactive: -0.83

Q: Which z-score does the source give for GGGUACAAGCUUAUCAAUATT against Trpm6 here?
A: active: 4.91

Q: For GGAAGAGAGAGAAUUACUATT against Luc7l3, which z-score is on record?
A: inactive: -1.17

Q: Which z-score does the source give for GGGACCUGAGGAAAACUGUTT against Ctdsp2 here?
A: inactive: 0.49

Q: For CCUUUGGUAGAGACCUUUUTT against Elp2, which z-score is on record?
A: inactive: -0.31

Q: For CCUUUACACCACUCUAUUUTT against Adgb, which z-score is on record?
A: inactive: -0.795

Q: For GCUACAUGUACCAGACAAATT against Hspb7, which z-score is on record?
A: inactive: 0.0612

Q: With GGCGUGAAAAUAGGAGAAUTT against Extl2 as the sequence, how does the z-score read?
A: inactive: -1.77
